Results are given in words; binding and its absence hold for the method and conditions named. Some entries that bind do so weakly or less than the wild type.
Target: soluble cynomolgus monkey TIM-3 fusion (cynomolgus monkey)
Assay: SPR

binding: binds
B1: exemplary anti-TIM-3 antibody (having heavy and light chains as set forth in SEQ ID NOs: 1 & 2, respectively) (antibody, human IgG4 S228P, kappa, V domains shown)
VH: EVQLLESGGGLVQPGGSLRLSCAAASGFTFSSYDMSWVRQAPGKGLDWVSTISGGGTYTYYQDSVKGRFTISRDNSKNTLYLQMNSLRAEDTAVYYCASMDYWGQGTTVTVSS
VL: DIQMTQSPSSLSASVGDRVTITCRASQSIRRYLNWYHQKPGKAPKLLIYGASTLQSGVPSRFSGSGSGTDFTLTISSLQPEDFAVYYCQQSHSAPLTFGGGTKVEIKR
modifications: N-glycosylation at asparagine residue 290 of SEQ ID NO:1
notes: Humanized IgG4 (human IGHG4*01) / kappa (IGKC*01); also called exemplary humanized monoclonal anti-TIM-3 antibody; anti-TIM-3 mAb
